# Test results reported in PubChem BioAssay AID1508600 (Functional Genomics Laboratory (NCATS/FGL), 2020).
# The whole screen tested about 53,000 sequences, of which about 3,700 (7%) were called active.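 How the source made its calls: active means gene knockdowns whose robust z-score for IL-1 alpha signal is at least 2 or at most -2, so actives lie on both sides; inactive means the rest.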 The list shows a part of the results.
# Test: Components of the Cytosolic LPS Sensing Pathway: Gene Identification via Genome-wide siRNA Screen;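 further: robust z of the log signal after scaling to non-targeting control siRNA wells of the plate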
# Conditions: RAW264.7 macrophages, IL-1a HTRF, actives lie on both sides, screened at 100 nM (by protocol), cells primed 5 h with Pam3CSK4 first
# In short: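 Three distinct siRNAs per gene were tested singly at 100 nM in RAW264.7 macrophages. Following Pam3CSK4 priming and 24 hour LipidA transfection, IL-1a secretion was read by HTRF.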
row,Sequence,z-score
1,CCCUCAGUUUUACUGUUUATT against Pip4k2a,inactive: -0.422
2,CCAAGUUUUAGCACCUAAATT against Dcp1a,inactive: 0.769
3,GGAGAUCGAAAAGAAUUUCTT against Mx2,inactive: 1.17
4,GGACCUGUAGCUAGCUUCUTT against Adamts10,inactive: -1.66
5,GGUUCUGUCUUUUGGAAGUTT against Gpr21,inactive: -1.39
6,GGCCAAAGUGUUGAAAACATT against Ptger4,inactive: 0.835
7,GGUUCAUGAUGGAUGACAUTT against Bmerb1,inactive: -1.96
8,CGUUCGAGUUGCUGAGCAUTT against Dyrk2,inactive: 0.231
9,CCAUCACCACUUACCUCUATT against Tesk1,inactive: 0.481
10,GGAGAUUUUCCAAAAUGUGTT against Proc,inactive: 0.209
11,GCCCUGUUUAGAACCAUCATT against Gna14,inactive: 0.603
12,CCUAGUCAUAUUCUACAGUTT against Iqca1l,inactive: 0.77
13,CGAAGUAAAUGUGAAUAGATT against Wdr77,inactive: -0.534
14,GGAGAUAGAGUUACCUUUGTT against Nbn,inactive: -1.48
15,CCAAGUACUACAAUUUCCATT against Oasl2,inactive: 0.421
16,UAAUAUUGUCAGCUGGCUUTT against D830030K20Rik,inactive: -0.261
17,CCGGCAAUUGCCUCAUUAUTT against Olfr1145,inactive: -1.51
18,GGUCACUCUAUGAGGAUUUTT against Vhl,inactive: -0.384
19,GGCCGAAUGGGUCUCUACATT against Gabrr2,inactive: 0.191
20,GGAGCGAGGAAUCAAUGUUTT against Prss8,active: 2.86
21,GGUGGCUUCUGCUUAUUUCTT against Slc13a1,inactive: 0.219
22,CCCAGUCACAAUAUUUUCUTT against Ssbp1,inactive: -0.335

row,Sequence,z-score
1,GGUUUUGAGCAUUAAUGUGTT against Dhrs4,inactive: -0.109
2,GCCGACAUCUCCAAGAGAUTT against Cdk5rap3,inactive: 1.67
3,CCACUCUCACCAGCUUUAUTT against Tm7sf2,inactive: 0.756
4,GGCUGAGAAACUGGAUGAATT against Rem1,inactive: -0.143
5,CGUAAAACGAGUGCUUUUATT against Grhl2,inactive: 0.641
6,GGGCUUUCUUUGUGAUAUUTT against Zbtb24,inactive: 0.993
7,GGAACCACUGCUAGCCAGATT against Serpinb6a,inactive: 0.491
8,GCAGAGCAUCCCUAUCUCATT against Fam160a1,inactive: -0.129
9,GCACCUGAGCUUUCGAAUATT against Fam3a,inactive: -0.373
10,GGGCUUAUGUUUCCAGACCTT against Prmt8,inactive: -0.463
11,GGCGAACACUGUCAUGAAUTT against Spin4,active: 3.37
12,GGAAAUAGGCAAGUUGUUGTT against Luc7l2,inactive: -0.214
13,GGGCAACUUGGAAUAAAGATT against Dsg3,inactive: -1.77
14,GGAUGAGGUGGAAAAAAUGTT against 1700029H14Rik,inactive: 0.946
15,GGUGGAGGGAAUGAACAUCTT against Slc1a5,inactive: -1.24
16,GCUCCUAAAAAGGCUCUUUTT against H2ac18,inactive: -0.463
17,GGUAGCUAGUAUCCAAUAATT against Psen1,inactive: 1.45
18,GAUUCCUUUUUUGGAGGCGTT against Olfr45,inactive: 1.21
19,GGUUCUUUUUGCCACAGCCTT against Miga2,active: -2.31
20,GGGAAUGGAUGUUAUGAGUTT against Oas1a,inactive: -0.247
21,GGGUAGUGGCAGAUUUGGATT against Sys1,inactive: 0.927
22,GCAAAACUUGGAACGAUUUTT against Ddx1,inactive: 0.153

row,Sequence,z-score
1,GGUUAGAAUUUGCUAGAAATT against Aldh1l2,inactive: 0.0502
2,GGGACUCAGUGUUUAUUGATT against Thsd4,inactive: 0.216
3,GGUACUAAAGUGUGAUGUGTT against Nnmt,inactive: -0.191
4,GCCAUUAAUCCUCUCAUCUTT against S1pr4,inactive: -0.193
5,GGUUUCGGUGGAAGUCGUATT against Scaf1,inactive: -1.95
6,GCAGUGUUUAGAGAGUUAUTT against Ano7,inactive: 0.705
7,GGAAAAGCAUCAAUUGAUGTT against Abca8b,inactive: -1.02
8,GGCCUUACAUCCUGUCUUUTT against Lime1,inactive: 0.598
9,GGUUUUAUGUAUGAAACUCTT against Mcub,inactive: -0.605
10,GGAACUGCUCGACAAAGCUTT against Primpol,active: -2.53
11,GCAUUAAGCACGAGAAAAATT against Slc18a2,inactive: 0.575
12,GGGAAUAUUUUCAAGUUGCTT against Tmem14a,inactive: 0.795
13,GGAAUGAAAGACAACCUAATT against Epb42,inactive: 1.71
14,GGAAGAGGUGAAAAUUACCTT against Plg,inactive: -0.307
15,GGAGAAACCUGACAUGUCUTT against Guf1,inactive: -1.33
16,GGAAUUCGAUGCAUUUGUATT against Il18rap,inactive: -0.34
17,GGUGAUCUCUUUAUUCUACTT against Olfr472,inactive: 0.485
18,GGACGAUGGAAAGCUCUAUTT against Olfr1229,inactive: -0.485
19,GGAUGUGGACACCUUUGCATT against Pxmp2,inactive: 0.291
20,GGUCACUUCAUCCAUAGCUTT against Atmin,inactive: -1.79
21,GCUUGUCUACAAAUACUCUTT against Morc2a,inactive: 0.276
22,GGGAAACCUUCUGUACCAGTT against Vps37b,inactive: 0.93

row,Sequence,z-score
1,GGUUUAAAGAAACUACCAGTT against Pam,inactive: 1.7
2,GCCUGCAUUAAACUCAUGUTT against A930017M01Rik,inactive: -0.125
3,GCCGAAAAUUACCAAAUGATT against Cnksr2,inactive: -1.65
4,GGUAGUUAGGUACCAUUUGTT against Ppm1e,inactive: 1.14
5,GGUUCAAGGUGAAGACUCCTT against Reg3b,inactive: 0.793
6,GGCUUUCUUCAACCUGAGUTT against Duoxa1,active: -2.43
7,GGAUUUCUUCCAGAAGAUGTT against Grhpr,inactive: -1.54
8,GCUAGAUACUAACAACUCCTT against T,inactive: 0.594
9,CCAAUAAAUUACAAGACGATT against Slc22a21,inactive: -0.578
10,GGGAAAAGCUUUGGUUGCCTT against Gpsm2,inactive: -1.71
11,GGCGUACGUAGACAAGUACTT against Scaf11,active: -2.23
12,GACAAGGUGCCAUACCAUUTT against Olfr351,inactive: -0.373
13,GGACAGAGCUACACAAACUTT against Vmn1r81,inactive: -0.443
14,GGUCAUGAAAAUUAAAGCATT against 1110059G10Rik,active: -2.31
15,GCUUUAUUGCUACAAAUUGTT against Lcor,inactive: 0.273
16,GGGAGUUUCCAGAUGUUUUTT against Gclm,inactive: 0.0729
17,GCACUUGUUGUUAUACUUCTT against Olfr23,inactive: 0.782
18,GGUCUAGGAUCAAUGCCUATT against Trpc3,inactive: -1.05
19,GCCGGACAACUCUAAUCAGTT against Herpud1,active: 3.22
20,CGGCUUAUGAGUUAAAGACTT against Rad51b,inactive: -1.03
21,GGCUUGGCUUCUUUAUUGUTT against Olfr218,inactive: -0.182
22,GGGCGAGAUCGCUACUAUUTT against Irf2bp1,inactive: 1.79

# Some values from the results shown:
# In z-score, GGCUUUCUUCAACCUGAGUTT against Duoxa1 is entered as active: -2.43
# In z-score, GGCGUACGUAGACAAGUACTT against Scaf11 is entered as active: -2.23
# In z-score, GGACAGAGCUACACAAACUTT against Vmn1r81 is entered as inactive: -0.443
# In z-score, GCCGGACAACUCUAAUCAGTT against Herpud1 is entered as active: 3.22
# In z-score, GGUCAUGAAAAUUAAAGCATT against 1110059G10Rik is entered as active: -2.31
# In z-score, GGUCUAGGAUCAAUGCCUATT against Trpc3 is entered as inactive: -1.05

# Next results follow:

row,Sequence,z-score
1,GGAGGACUAGGAGUGAUUGTT against Fggy,inactive: -0.363
2,GGGUAGGUUUGAAAGAAAGTT against Zfp24,inactive: -0.614
3,CCUCUGUCUAGAAUUACUATT against Kcnv2,inactive: 1.87
4,GCAAUUAGUCACCAAGGCCTT against Ube2v1,inactive: -0.0555
5,GCGUGAGAGAACAACAGACTT against Fam133b,inactive: -0.692
6,GGACAACAUUCAUUUCUGUTT against Acaa1b,inactive: -0.335
7,GGUGACAGGUCAGAAAGUCTT against Tor1aip2,active: -2.78
8,GGCUAUGAAUCCAGAGCUUTT against Sun1,inactive: -0.0964
9,CCGUGAAUGACUCGUCCUCTT against Dhrsx,inactive: -0.095
10,GCCAAUAUAUCUGUGGUGUTT against Olfr1186,inactive: 0.208
11,GAGUGCUCUGAAAUAUUUUTT against Mup4,inactive: -0.409
12,GGCGCAUGCAGAGUAUCAATT against Tfap4,inactive: 0.535
13,CGUAGAGAUGGCGUAUGUCTT against Mpnd,inactive: 0.209
14,GCUAAAACAAGUUUGAAGATT against Sntg2,inactive: 0.142
15,GGAGUUCACGGAUCUUGAGTT against Ppp1r37,inactive: 0.226
16,GGCAAUGAUCUUAUUCCAATT against Akr1cl,inactive: 1.42
17,GAACUAAGACACAUCUUUGTT against Tnni3k,inactive: 1.61
18,GCAAAACUGAACAAAGUACTT against Xirp2,inactive: 0.658
19,CGAGUCAGACCUUGAUCUATT against Zfat,inactive: 1.03
